PubChem BioAssay AID540275 (National Center for Advancing Translational Sciences (NCATS), 2011)
“And” between values parts separate entries of the source, which are not always exact repeats. Identical values can stand only once. Screen size: about 320,000 compounds; about 620 (0.19%) were called active. The inconclusive results got no clear call from the source; some entries with a clear call stand among them for comparison. No stated cut-off is given here; in the data, active means activation above about 80%; inconclusive means between about 30% and that limit; inactive means weaker than that.
Wherever activation is given: 0% is about no effect.

Protein sequences, listed by entry. Tags and fused reporters are not part of them.
UniProt Q8NER1, whole entry, looked up: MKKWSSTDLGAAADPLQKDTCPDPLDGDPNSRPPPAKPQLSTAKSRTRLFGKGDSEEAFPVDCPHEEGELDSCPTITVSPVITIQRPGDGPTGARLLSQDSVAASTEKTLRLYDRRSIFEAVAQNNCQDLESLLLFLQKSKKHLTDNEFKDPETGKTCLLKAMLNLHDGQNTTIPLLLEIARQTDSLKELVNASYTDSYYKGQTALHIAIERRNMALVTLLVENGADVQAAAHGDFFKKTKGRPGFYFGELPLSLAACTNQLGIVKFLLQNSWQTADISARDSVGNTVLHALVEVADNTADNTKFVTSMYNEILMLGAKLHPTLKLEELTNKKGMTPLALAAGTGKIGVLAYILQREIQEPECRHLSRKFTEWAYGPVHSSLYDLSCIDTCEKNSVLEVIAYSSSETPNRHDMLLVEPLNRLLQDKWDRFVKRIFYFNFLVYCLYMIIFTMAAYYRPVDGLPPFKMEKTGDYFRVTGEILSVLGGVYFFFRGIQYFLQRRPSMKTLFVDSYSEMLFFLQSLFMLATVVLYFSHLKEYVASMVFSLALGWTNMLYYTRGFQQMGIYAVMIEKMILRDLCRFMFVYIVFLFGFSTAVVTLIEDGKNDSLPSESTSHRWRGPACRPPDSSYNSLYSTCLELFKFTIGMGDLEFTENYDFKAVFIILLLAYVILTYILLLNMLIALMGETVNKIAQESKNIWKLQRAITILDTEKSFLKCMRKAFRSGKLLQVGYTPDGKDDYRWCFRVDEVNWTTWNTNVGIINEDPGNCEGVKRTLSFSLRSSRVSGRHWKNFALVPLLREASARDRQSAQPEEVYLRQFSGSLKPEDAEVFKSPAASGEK

What follows are molecules tested against Transient receptor potential cation channel subfamily V member 1 (Homo sapiens) (UniProt Q8NER1) (assay: HTS Assay for Compounds that Act as Agonists of the Vanilloid Receptor 1). Conditions: TRPV1-expressing cells, Fluo-8 calcium influx, agonist mode; at 8.33 µM, stronger effect = higher value.
Procedure, shortened: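 Cells expressing TRPV1 were dye-loaded with Fluo-8 and read kinetically: 10 s baseline, 3 min after compound (agonist portion), then 2 min after EC20 capsaicin (allosteric enhancer portion). Calcium-bound dye fluorescence at 480/520 nm.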
For `COc1ccc(C(NC(=O)c2cccc(F)c2)c2ccccc2)cc1` (stereo not given), the activation was inactive: 12.5%.
In the case of `Cn1cccc1/C=N/NC(=O)c1ccc(OC(F)(F)C(F)F)cc1`, the activation is reported as inconclusive: 63.2%.
With `Cc1ccc(NC(=O)C(c2ccccc2)C2CCCC2)cc1` (stereo not given) the activation was inconclusive: 43.4%.
For `OC(c1ccccc1)c1nccc2ccccc12` (stereo not given), the activation was inactive: 2.93%.
`CCC(=O)Nc1nnc(-c2ccncc2)s1` was tested, and the activation was inactive: -0.82%.
In the case of `Cc1cccc(NC(=O)C2C3CCCCC32)c1` (stereo not given), the activation is reported as inconclusive: 37.1%.
`Cc1ccc(Cc2cc(-c3ccc(C)cc3)n[nH]c2=O)cc1` was tested, and the activation was inconclusive: 50.3%.
`CN(C)S(=O)(=O)c1cccc(C(=O)Nc2ccc3c(c2)CCC3)c1` was tested, and the activation was inconclusive: 66%.
In the case of `CCCn1nnc(NC(=O)c2ccccc2Br)n1`, the activation is reported as inconclusive: 33%.
For `CCCOc1ccc(/C=N/NC(=S)Nc2ccccc2[N+](=O)[O-])c(O)c1`, the activation was inactive: 0.253%.
In the case of `CCCCc1ccc(NC(=O)CC(C)(C)C)cc1`, the activation is reported as inconclusive: 51%.
With `CCOc1ccc(/C=N/n2c(C)nc3ccccc3c2=O)cc1` the activation was inconclusive: 39.5%.
With `O=S(=O)(NCC1(N2CCOCC2)CCCCC1)c1ccccc1Cl` the activation was inactive: 25.4%.
`CCCc1ncc(C(O)(c2ccccc2)c2ccccc2)n1C` was tested, and the activation was inconclusive: 48%.
`COc1ccc(-c2noc(CCC(=O)N3CCC(C)CC3)n2)cc1` was tested, and the activation was inconclusive: 32.6%.
In the case of `COc1ccc(/C=N/NC(=O)Cc2ccc(Cl)cc2)cc1OC`, the activation is reported as inactive: -0.478%.
`CCOC(=O)/C=C1\CC(=O)Nc2cc(C)c(C)cc2N1` was tested, and the activation was inconclusive: 34.9%.
For `COc1ccc2nc(NC(=O)c3ccccc3[N+](=O)[O-])sc2c1`, the activation was inconclusive: 38.6%.
`O=C(N/N=C/C=C/c1ccco1)c1ccncc1` was tested, and the activation was inconclusive: 35.3%.
For `C[C@@H](CSc1ccc(Br)cc1)CN1CC[C@H](O)CCC1=O`, the activation was inconclusive: 30.4%.
With `O=C(CCCCCNC(=O)c1ccccc1Br)N=Nc1c(O)[nH]c2ccccc12` the activation was inactive: -2.88%.
For `O=C(NC1CCCCC1)N1CCN(c2ccc(Cl)cc2)CC1`, the activation was inconclusive: 40.8%.
For `CSc1cccc(N2CC(C(=O)NCCC3=CCCCC3)CC2=O)c1` (stereo not given), the activation was inconclusive: 35.8%.
`Cc1ccc(S(=O)(=O)N2CCC(=O)N(C(COCc3ccccc3)Cc3ccccc3)CC2)cc1` (stereo not given) was tested, and the activation was inconclusive: 35.4%.
In the case of `COc1ccc(NC(=O)c2ccc3nccnc3c2)cc1`, the activation is reported as inactive: 3.99%.
In the case of `N/C(=N\OC(=O)c1ccc2c(c1)OCO2)c1cccc([N+](=O)[O-])c1`, the activation is reported as inactive: 25%.
For `COc1cc2c3c(c1)-c1c(sn(-c4cc(OC)ccc4OC)c1=S)C(C)(C)N3C(=O)C2=O`, the activation was inconclusive: 53.8%.
`CC(=O)NCCn1c(SCc2ccccc2C)nc2ccccc2c1=O` was tested, and the activation was inconclusive: 74.2%.
In the case of `C=CCNC(=S)N1CCN(c2ncc(C(F)(F)F)cc2Cl)CC1`, the activation is reported as inconclusive: 52.8%.
`CCC1SC2=NC(C)=C(C(=O)OCC(C)C)C(/C=C/c3ccccc3OC)N2C1=O` (stereo not given) was tested, and the activation was inconclusive: 43.9%.
In the case of `Cc1ccc(CC(=O)NCc2ccc(Cl)cc2)cc1`, the activation is reported as inconclusive: 41%.
For `Cc1oc(S(=O)(=O)N2CCOCC2)cc1C(=O)Nc1ccc(Cl)cc1`, the activation was inconclusive: 49.9%.
`O=C1CC(Sc2ccc(Cl)cc2)C(=O)N1Cc1ccncc1` (stereo not given) was tested, and the activation was inconclusive: 57%.
For `Cc1cc(OCC(=O)Nc2ccncc2)ccc1Cl`, the activation was inconclusive: 77.7%.
In the case of `COc1ccc(N/C=C\C(=O)c2ccc3ccccc3c2)cc1`, the activation is reported as inactive: 0.163%.
`CCOC(=O)c1[nH]c(C)c(C(=O)Nc2ccc(C)c(F)c2)c1C` was tested, and the activation was inconclusive: 30.9%.
`CC(C)C(=O)Nc1sc2c(c1-c1nc3ccccc3[nH]1)CCCC2` was tested, and the activation was inconclusive: 63%.
In the case of `C=C(C)CNC(=S)N1CCN(C(c2ccccc2)c2ccccc2)CC1`, the activation is reported as inconclusive: 40.8%.
For `COCCSc1ccccc1C(=O)N1CCC(Cc2ccccc2)CC1`, the activation was inconclusive: 34.5%.
`CCOC(=O)C(=Cc1cc(=O)c(OC)co1)C(=O)OCC` was tested, and the activation was inactive: 3.93%.
For `N#C/C(=N\Nc1ccc(F)cc1)C(=N)N1CCCCCC1`, the activation was inconclusive: 57.7%.
For `CCOC(=O)N1CCN(c2ccc([N+](=O)[O-])cc2)CC1`, the activation was inconclusive: 32%.
`Cc1nc(-c2ccc(F)cc2)c(CC(=O)N2CCN(S(=O)(=O)c3cccc(F)c3)CC2)s1` was tested, and the activation was inconclusive: 31.6%.
For `O=C(Nc1nccs1)c1ccc(N2CCOCC2)c([N+](=O)[O-])c1`, the activation was inconclusive: 40%.
In the case of `CCOC(=O)c1ccc2nc(NC(=O)c3cccs3)sc2c1`, the activation is reported as inconclusive: 57.8%.
`Nc1nc(CN2CCN(Cc3ccc4c(c3)OCO4)CC2)nc(Nc2ccccc2)n1` was tested, and the activation was inactive: -3.18%.
For `O=S(=O)(c1ccc2c(c1)nc(COc1ccc(Cl)cc1)n2CC1CCCO1)N1CCOCC1` (stereo not given), the activation was inconclusive: 65%.
With `O=C(Nc1sc2c(c1C(=O)O)CCCCC2)c1cccs1` the activation was inconclusive: 31.9%.
For `Cc1ccc(-c2nc(N/N=C/c3cccnc3)c3ccccc3n2)cc1`, the activation was inconclusive: 37.2%.
With `CCc1ccccc1N(CC)C(=O)C1CCN(c2ncnc3c2nc2n3CCCCC2)CC1` the activation was inconclusive: 57.4%.
In the case of `COc1ccc(CC(=O)NCc2nn(-c3ccccc3)nc2C)cc1OC`, the activation is reported as inconclusive: 76.8%.
For `COc1ccc(Nc2cc(C(=O)NCCCN3CCOCC3)c3ccccc3n2)cc1`, the activation was inactive: -0.325%.
For `COc1ccc(C(=O)Cn2c(C(=O)/C=C/c3ccccc3)nc3ccccc32)cc1`, the activation was inconclusive: 31.3%.
In the case of `O=C(NCc1ccc(Cl)cc1)c1ccc(S(=O)(=O)N2CCCCC2)cc1`, the activation is reported as inconclusive: 42.8%.
`Cc1ccccc1NC(=O)N1CCN(C/C=C/c2ccccc2)CC1` was tested, and the activation was inactive: 6.62%.
In the case of `CC(C)Oc1cc(NC(=O)CS(=O)CC(=O)Nc2cccc(C(F)(F)F)c2)c(Cl)cc1Cl` (stereo not given), the activation is reported as inconclusive: 32.1%.
In the case of `O=C1N=C(N2CCOCC2)S/C1=C\c1ccccc1OS(=O)(=O)c1ccccc1`, the activation is reported as inconclusive: 76.9%.
`CCN(Cc1ccc(OC)c(COC)c1)CC1CCCN(CCc2cccc(F)c2)C1` (stereo not given) was tested, and the activation was inactive: -5.5%.
With `COc1cc(C(=O)NC(=S)Nc2ccc(Cl)cn2)cc(OC)c1OC` the activation was inactive: 0.494%.
With `Oc1[nH]c2ccccc2c1N=Nc1ccc(F)cc1` the activation was inactive: 2.39%.
With `O=C1CCC/C1=C\Nc1ccc(Cl)c([N+](=O)[O-])c1` the activation was inactive: 27.4%.
In the case of `O=C1CCCC2=C1C1O[C@](CCCCN3C(=O)c4ccccc4C3=O)(Cc3c1ccc1ccccc31)O2`, the activation is reported as “inactive”.
`COc1cccc(-c2nn(-c3ccc(C)cc3)cc2C(=O)N2CCc3cc(OC)c(OC)cc3C2)c1` was tested, and the activation was inconclusive: 54.2%.
For `COc1ccc(-n2nc(C(=O)NCC(=O)NCCCN3CCCCCC3)c3ccccc3c2=O)cc1Cl`, the activation was inactive: -2.13%.
`Cc1cc2cc(CNC(=O)Cc3cccs3)ccc2n1C` was tested, and the activation was inconclusive: 52%.
With `CC(C)C[C@H](NC(=O)N1CCn2c1nc1ccccc12)C(=O)NC1CCCCC1` the activation was inconclusive: 38%.
With `O=C(Cc1ccc(Cl)cc1)Nc1ccc(CN2CCCCC2)cc1` the activation was inactive: 6.2%.
In the case of `Cc1ccc2c(nc3s/c(=C\c4ccc(-c5ccccc5C(=O)O)o4)c(=O)n32)c1C`, the activation is reported as inconclusive: 43.1%.
`COc1ccc(NS(=O)(=O)c2ccc(OCC(=O)N3CCOCC3)cc2)cc1` was tested, and the activation was inactive: 0.541%.
In the case of `O=C(Nc1ccc2c(c1)OCCO2)c1cccs1`, the activation is reported as inconclusive: 42%.
For `O=C(N/N=C/c1ccsc1)c1cc(-c2cccs2)nc2ccccc12`, the activation was inconclusive: 33.7%.
In the case of `COc1cccc2cc(-c3cc(=O)oc4cc(C)c(OCC(C)=O)cc34)oc12`, the activation is reported as inactive: -1.49%.
With `O=C(CNS(=O)(=O)c1ccc(Br)s1)NCc1ccc(F)cc1` the activation was inconclusive: 47.3%.
With `CCSc1ccc2c(c1)N(CCCN1CCN(C)CC1)c1ccccc1S2` the activation was inactive: 17.8%.
For `CC(C)NC(=O)NC(=O)COC(=O)c1ccccc1F`, the activation was inactive: 0.304%.
For `COc1ccc(C(=O)N=c2sc3ccccc3n2C)cc1`, the activation was inconclusive: 33.1%.
In the case of `Cc1ccc(S(=O)(=O)N2CCOCC2)cc1NC(=O)C(c1ccc(Cl)cc1)C(C)C` (stereo not given), the activation is reported as inconclusive: 48%.
`Cc1cc(CN(C)C(=O)c2cc(COc3ccc(C)c(C)c3)on2)n[nH]1` was tested, and the activation was inconclusive: 40.9%.
`COc1ccc(-c2cc(-c3ccccc3)nc3ncnn23)cc1` was tested, and the activation was inconclusive: 65.3%.
With `CCC(C(=O)Nc1ccc(C(=O)Nc2ccccc2C(=O)O)cc1)c1ccccc1` (stereo not given) the activation was inactive: -0.247%.
In the case of `Cc1cccc(C(=O)NC(C(=O)Nc2ccccc2N2CCOCC2)C(C)C)c1` (stereo not given), the activation is reported as inconclusive: 35.1%.
For `COC(=O)C1=C(C)N(Cc2ccccc2)C(=S)N[C@H]1c1ccccc1`, the activation was inactive: 2.26% and inactive: -0.669%.
`COC(=O)Cn1c(=NC(=O)c2cc(-c3cccs3)nc3ccccc23)sc2cc(S(N)(=O)=O)ccc21` was tested, and the activation was inconclusive: 44.4%.
In the case of `O=C(Nn1c(C2CCCCC2)nc2ccccc2c1=O)c1cc(Cl)ccc1[N+](=O)[O-]`, the activation is reported as inconclusive: 37.4%.
With `O=C(Nc1ccccc1)C1CCN(S(=O)(=O)c2cccs2)CC1` the activation was inconclusive: 38.1%.
In the case of `O=C(Nc1cccc2ccccc12)N1CCN(c2ccc(F)cc2)CC1`, the activation is reported as inconclusive: 58%.
For `O=C(Nc1ccccc1)c1ccc(-c2ccccc2Cl)o1`, the activation was inconclusive: 68.9%.
With `Cc1cc(C(=O)CSc2ccc(F)cc2)cc(C)c1OC(=S)N(C)C` the activation was inconclusive: 47.3%.
With `CN(C)c1nc(N)nc(CSc2nnnn2C)n1` the activation was inactive: 1.12%.
`O=C(Nc1cccc(-c2ccc(F)cc2)c1)C1CCCN(C(=O)c2cscn2)C1` (stereo not given) was tested, and the activation was inactive: 0.962%.
